The record followed here is article PMC6517413.

By UniProt entry, the sequences of proteins in these tests, tags left out. Where a name states a change or a piece, a line headed by the entry shows the natural chain unless it says otherwise.
UniProt P49735: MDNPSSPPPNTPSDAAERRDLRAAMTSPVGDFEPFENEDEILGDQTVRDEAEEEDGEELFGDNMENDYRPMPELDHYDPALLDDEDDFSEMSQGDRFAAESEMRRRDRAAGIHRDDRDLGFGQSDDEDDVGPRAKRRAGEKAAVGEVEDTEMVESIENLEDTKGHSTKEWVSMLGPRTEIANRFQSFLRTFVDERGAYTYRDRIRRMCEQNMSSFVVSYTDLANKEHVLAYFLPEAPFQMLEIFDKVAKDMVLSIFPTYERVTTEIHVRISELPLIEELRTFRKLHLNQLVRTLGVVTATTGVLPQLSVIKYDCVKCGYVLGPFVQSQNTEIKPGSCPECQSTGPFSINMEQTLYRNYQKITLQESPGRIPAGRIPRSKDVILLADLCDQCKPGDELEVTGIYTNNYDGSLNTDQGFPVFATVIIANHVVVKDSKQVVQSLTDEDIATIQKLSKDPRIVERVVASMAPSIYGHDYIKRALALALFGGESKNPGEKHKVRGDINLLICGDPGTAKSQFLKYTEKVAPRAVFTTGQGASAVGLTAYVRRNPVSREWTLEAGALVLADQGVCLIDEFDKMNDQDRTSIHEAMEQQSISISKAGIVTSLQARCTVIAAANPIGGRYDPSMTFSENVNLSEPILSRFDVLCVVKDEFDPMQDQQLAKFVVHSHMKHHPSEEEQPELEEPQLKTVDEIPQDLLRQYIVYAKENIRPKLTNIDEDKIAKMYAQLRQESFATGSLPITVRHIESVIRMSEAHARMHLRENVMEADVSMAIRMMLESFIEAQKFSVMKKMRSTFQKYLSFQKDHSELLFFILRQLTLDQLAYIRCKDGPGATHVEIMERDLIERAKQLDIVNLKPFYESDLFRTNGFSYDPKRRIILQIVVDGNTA
UniProt Q9XYU1: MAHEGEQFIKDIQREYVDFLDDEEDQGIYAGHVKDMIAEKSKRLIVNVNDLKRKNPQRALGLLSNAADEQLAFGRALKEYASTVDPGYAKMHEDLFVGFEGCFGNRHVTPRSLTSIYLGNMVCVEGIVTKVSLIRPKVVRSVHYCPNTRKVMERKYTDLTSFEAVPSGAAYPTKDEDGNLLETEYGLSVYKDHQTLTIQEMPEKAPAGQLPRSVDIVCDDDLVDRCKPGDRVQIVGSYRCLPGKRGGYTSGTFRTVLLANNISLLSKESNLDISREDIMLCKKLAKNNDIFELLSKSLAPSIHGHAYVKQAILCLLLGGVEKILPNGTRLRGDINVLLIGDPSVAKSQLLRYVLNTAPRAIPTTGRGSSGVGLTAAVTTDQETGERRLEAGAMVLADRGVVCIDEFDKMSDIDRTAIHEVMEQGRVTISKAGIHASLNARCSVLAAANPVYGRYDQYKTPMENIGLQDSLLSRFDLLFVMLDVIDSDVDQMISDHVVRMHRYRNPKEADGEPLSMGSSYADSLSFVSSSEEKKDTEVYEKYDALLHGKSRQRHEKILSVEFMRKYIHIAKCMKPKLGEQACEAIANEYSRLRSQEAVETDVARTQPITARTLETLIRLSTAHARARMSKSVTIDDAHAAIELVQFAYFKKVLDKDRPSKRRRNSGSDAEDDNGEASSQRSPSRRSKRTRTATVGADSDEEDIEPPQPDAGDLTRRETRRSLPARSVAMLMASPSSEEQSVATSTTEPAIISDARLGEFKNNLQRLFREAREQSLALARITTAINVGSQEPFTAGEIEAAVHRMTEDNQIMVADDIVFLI
UniProt Q26454: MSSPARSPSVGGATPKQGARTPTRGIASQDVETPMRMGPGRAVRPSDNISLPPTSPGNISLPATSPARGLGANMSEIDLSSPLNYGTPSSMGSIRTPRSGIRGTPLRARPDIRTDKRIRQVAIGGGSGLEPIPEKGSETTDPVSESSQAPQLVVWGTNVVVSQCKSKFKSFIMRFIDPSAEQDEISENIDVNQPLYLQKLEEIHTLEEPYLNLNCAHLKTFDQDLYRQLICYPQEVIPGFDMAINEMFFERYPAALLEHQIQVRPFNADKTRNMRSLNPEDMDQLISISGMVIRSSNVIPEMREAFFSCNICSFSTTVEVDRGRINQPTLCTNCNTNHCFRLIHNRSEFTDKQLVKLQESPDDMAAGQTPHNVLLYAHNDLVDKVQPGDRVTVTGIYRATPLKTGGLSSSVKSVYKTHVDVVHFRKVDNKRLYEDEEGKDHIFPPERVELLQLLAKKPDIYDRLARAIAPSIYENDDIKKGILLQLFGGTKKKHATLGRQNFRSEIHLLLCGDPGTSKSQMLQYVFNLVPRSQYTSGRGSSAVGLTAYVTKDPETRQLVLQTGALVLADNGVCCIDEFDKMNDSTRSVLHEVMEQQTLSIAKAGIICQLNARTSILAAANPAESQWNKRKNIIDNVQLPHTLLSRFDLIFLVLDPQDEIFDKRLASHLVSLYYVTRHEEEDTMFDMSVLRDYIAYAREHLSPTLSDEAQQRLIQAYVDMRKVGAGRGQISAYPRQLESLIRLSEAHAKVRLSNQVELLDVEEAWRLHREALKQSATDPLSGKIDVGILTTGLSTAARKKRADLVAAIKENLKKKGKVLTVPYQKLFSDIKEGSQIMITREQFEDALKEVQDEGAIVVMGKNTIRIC
UniProt Q9VGW6: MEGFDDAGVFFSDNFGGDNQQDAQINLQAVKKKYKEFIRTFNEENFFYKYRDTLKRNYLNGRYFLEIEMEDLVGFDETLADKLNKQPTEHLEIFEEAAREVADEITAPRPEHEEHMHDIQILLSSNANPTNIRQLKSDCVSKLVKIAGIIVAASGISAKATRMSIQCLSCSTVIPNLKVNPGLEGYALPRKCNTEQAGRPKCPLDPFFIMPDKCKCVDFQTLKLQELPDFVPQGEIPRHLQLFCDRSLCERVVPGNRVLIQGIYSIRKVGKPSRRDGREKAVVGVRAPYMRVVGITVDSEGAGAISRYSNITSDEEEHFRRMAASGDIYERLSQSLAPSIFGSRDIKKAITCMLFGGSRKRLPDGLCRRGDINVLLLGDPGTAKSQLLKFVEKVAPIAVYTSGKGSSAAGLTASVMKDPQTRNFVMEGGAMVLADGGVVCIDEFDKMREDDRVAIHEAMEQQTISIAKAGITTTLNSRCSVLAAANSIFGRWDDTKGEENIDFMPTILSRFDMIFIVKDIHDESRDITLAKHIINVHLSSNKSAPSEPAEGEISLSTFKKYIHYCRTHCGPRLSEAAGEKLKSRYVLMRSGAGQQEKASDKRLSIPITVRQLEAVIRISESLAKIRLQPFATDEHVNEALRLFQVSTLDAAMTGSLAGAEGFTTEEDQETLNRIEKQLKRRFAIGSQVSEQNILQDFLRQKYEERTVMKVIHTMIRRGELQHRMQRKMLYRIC
UniProt Q9V461: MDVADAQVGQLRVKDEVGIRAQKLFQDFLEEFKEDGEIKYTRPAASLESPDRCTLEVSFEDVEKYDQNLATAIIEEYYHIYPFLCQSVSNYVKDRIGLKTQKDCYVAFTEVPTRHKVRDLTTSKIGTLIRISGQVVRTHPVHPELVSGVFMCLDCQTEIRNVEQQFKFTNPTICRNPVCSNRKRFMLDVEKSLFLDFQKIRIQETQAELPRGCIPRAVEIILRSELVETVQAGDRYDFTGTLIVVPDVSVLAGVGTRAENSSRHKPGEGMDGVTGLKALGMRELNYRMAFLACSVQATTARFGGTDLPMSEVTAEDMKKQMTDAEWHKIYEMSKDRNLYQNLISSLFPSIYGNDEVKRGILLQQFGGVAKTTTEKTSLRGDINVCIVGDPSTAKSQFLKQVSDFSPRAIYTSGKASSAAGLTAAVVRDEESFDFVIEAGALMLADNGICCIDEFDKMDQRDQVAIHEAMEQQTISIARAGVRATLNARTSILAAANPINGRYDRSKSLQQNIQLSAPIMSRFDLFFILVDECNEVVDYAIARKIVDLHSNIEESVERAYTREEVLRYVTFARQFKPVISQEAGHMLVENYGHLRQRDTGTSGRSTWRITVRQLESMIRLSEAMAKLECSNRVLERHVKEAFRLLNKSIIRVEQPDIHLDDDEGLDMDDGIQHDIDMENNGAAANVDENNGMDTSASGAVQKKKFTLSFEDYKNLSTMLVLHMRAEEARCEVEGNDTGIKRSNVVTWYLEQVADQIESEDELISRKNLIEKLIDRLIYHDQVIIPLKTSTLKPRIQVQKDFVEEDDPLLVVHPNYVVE
UniProt Q9XYU0: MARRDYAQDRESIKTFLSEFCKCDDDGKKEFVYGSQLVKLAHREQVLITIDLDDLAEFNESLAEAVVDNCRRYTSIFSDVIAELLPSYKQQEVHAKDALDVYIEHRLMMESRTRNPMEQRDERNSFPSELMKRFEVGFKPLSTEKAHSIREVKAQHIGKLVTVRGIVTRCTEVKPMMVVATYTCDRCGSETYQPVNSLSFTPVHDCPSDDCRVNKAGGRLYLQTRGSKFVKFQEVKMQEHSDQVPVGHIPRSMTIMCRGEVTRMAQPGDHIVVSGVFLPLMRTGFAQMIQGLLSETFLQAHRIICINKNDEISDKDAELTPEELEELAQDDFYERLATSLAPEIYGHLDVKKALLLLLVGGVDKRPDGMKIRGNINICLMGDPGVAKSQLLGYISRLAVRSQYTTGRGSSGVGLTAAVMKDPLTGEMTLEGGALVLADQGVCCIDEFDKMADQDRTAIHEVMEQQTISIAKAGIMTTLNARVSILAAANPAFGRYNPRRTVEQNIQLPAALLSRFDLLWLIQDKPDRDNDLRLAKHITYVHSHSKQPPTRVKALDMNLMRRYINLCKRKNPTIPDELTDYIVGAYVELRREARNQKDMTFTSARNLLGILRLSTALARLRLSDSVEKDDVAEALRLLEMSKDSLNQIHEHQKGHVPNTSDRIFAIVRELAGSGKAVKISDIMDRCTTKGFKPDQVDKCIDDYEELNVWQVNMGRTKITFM

These are yes or no findings as the source states them, for the method shown. Some results given as binding are weak or reduced against the parent protein; the word gives no strength.

For this assay, the target named is Drosophila melanogaster Mcm2-7 hetero-hexamer, as part of purified recombinant DmCMG (Drosophila melanogaster) (UniProt P49735+Q9XYU1+Q26454+Q9VGW6+Q9V461+Q9XYU0). As to the kind of experiment: co-purification (anti-FLAG affinity, then ion exchange), SDS-PAGE with Coomassie stain; 11 DmCMG subunits co-expressed in Hi five cells; lysate at 100 mM KCl bound to M2 agarose, eluted with DYKDDDDK peptide, passed through HiTrap SPFF, then two MonoQ KCl gradients (CMG eluted at ~400-450 mM KCl); FLAG-tagged subunit not stated.

B1: Drosophila melanogaster Cdc45, as part of purified recombinant DmCMG (protein, UniProt O96989 1-575)
chain: MFVQDLRNDFYRQLVGKRILIVVNYDIDAICASRILQALFKYDHMLYTVVPIMGVTGLKRAYGEHQGDVKYVVLVNCGGCVDIVELLQPSDDVTFFICDSHRPLDVCNIYSDRQVCILGDASLEENIPAFETIFYDSEGEDEDEDESSDTEQQHDDSGAGESDQEDQAPRSRKLSRLERHEQRILKQRARRQWESERDRIMFEYTQFSYYGRSAALMVFELAWKLSKDNMDLLWWAIVGITEQLLLGKIESGAYTLELEQIQSHVSRLTNKTNDQNTMSASKITFENDLHLVLYRHWPVTESMRYSRYSSCQLKLWTLRGEKRLHELLLEMGLPLVHARQTYGAMDLVLRKEFFSMVERLAEKYDIADIVYGTFTLSYGYRSRYAAADYVYALLAIMESVKKHKTPEDCFLEASDALSRQHKQLLSAGIDQAKLLHAAVFRQVQSSLEARQVHSAGSFFYYVLQEEHAFFSYPYALGLLARFLLRGHVATSRARQASDLPLIASCPLNASEGMCLLVGIVPVREDSPRNFFGKAFEQAAQKSGVALLQDFFEPAVVQLRQSDLTRFLDSLTVLLA
As to B1, the binding result is reported as “binds”.
